Test results as given in article PMC8526591.

Biological target: Notch intracellular domain (NICD) (human (endogenous in RBE))
Assay: co-IP; Coimmunoprecipitation using RBE cells; which protein was precipitated is not told in the text shown; methods in the Supplementary Material

binding: binds
B1: Numb (protein, UniProt P49757 1-651)
chain: MNKLRQSFRRKKDVYVPEASRPHQWQTDEEGVRTGKCSFPVKYLGHVEVDESRGMHICEDAVKRLKAERKFFKGFFGKTGKKAVKAVLWVSADGLRVVDEKTKDLIVDQTIEKVSFCAPDRNFDRAFSYICRDGTTRRWICHCFMAVKDTGERLSHAVGCAFAACLERKQKREKECGVTATFDASRTTFTREGSFRVTTATEQAEREEIMKQMQDAKKAETDKIVVGSSVAPGNTAPSPSSPTSPTSDATTSLEMNNPHAIPRRHAPIEQLARQGSFRGFPALSQKMSPFKRQLSLRINELPSTMQRKTDFPIKNAVPEVEGEAESISSLCSQITNAFSTPEDPFSSAPMTKPVTVVAPQSPTFQANGTDSAFHVLAKPAHTALAPVAMPVRETNPWAHAPDAANKEIAATCSGTEWGQSSGAASPGLFQAGHRRTPSEADRWLEEVSKSVRAQQPQASAAPLQPVLQPPPPTAISQPASPFQGNAFLTSQPVPVGVVPALQPAFVPAQSYPVANGMPYPAPNVPVVGITPSQMVANVFGTAGHPQAAHPHQSPSLVRQQTFPHYEASSATTSPFFKPPAQHLNGSAAFNGVDDGRLASADRHTEVPTGTCPVDPFEAQWAALENKSKQRTNPSPTNPFSSDLQKTFEIEL

Results are given in words; binding and its absence hold for the method and conditions named. In cells and extracts the contact can be indirect. A result given as binding can be weak or reduced; the word gives no strength.
